Binding data for four molecules are collected here from patent publication US20200108142A1.

No constants are given. Whether binding was seen depends on the method and setting. Some binding calls cover weakened binding; strength is not graded here. Tags and fused reporters may be left off the sequences shown.

T1: FLT3-HIS (human (accession given for hFLT3 in paragraph 116; species not restated for the reagent)) (UniProt P36888)
T1 sequence (soluble antigen used as staining reagent, looked up): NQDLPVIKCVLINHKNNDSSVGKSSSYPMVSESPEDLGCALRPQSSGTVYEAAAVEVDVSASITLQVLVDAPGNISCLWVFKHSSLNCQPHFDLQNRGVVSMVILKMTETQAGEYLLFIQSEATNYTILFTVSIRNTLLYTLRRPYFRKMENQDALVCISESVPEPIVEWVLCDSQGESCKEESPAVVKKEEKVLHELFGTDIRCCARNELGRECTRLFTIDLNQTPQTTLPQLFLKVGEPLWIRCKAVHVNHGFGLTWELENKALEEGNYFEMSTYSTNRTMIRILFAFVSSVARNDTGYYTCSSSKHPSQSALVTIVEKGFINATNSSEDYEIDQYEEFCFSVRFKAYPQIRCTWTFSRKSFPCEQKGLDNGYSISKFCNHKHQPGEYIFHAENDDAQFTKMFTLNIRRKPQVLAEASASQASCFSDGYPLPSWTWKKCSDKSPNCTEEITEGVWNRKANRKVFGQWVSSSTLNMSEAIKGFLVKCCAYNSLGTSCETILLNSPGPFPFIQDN

B1: 8B5 THD (protein)
CAR polypeptide (scFv, THD hinge, transmembrane, costimulatory and CD3 zeta domains): QIQLVESGGGVVQPGRSLRLSCVASGFTFKNYGMHWVRQAPGKGLEWVAVIWYDGSNEYYGDPVKGRFTISRDNSKNMLYLQMNSLRADDTAVYYCARSGIAVAGAFDYWGQGTLVTVSSGGGGSGGGGSGGGGSEIVLTQSPDTLSLSPGEKATLSCRASQSVSSSFLAWYQQKPGQAPSLLIYVASRRAAGIPDRFSGSGSGTDFTLTISRLEPEDFGMFYCQHYGRTPFTFGPGTKVDIKRAAALDNEKSNGTIIHVKGKHLCPSPLFPGPSKPFWVLVVVGGVLACYSLLVTVAFIIFWVRSKRSRLLHSDYMNMTPRRPGPTRKHYQPYAPPRDFAAYRSRVKFSRSADAPAYQQGQNQLYNELNLGRREEYDVLDKRRGRDPEMGGKPRRKNPQEGLYNELQKDKMAEAYSEIGMKGERRRGKGHDGLYQGLSTATKDTYDALHMQALPPR
B2: 10E3 CHD (protein)
CAR polypeptide (scFv, CHD hinge, transmembrane, costimulatory and CD3 zeta domains): QVTLKESGPVLVKPTETLTLTCTVSGFSLINARMGVSWIRQPPGKALEWLAHIFSNAEKSYRTSLKSRLTISKDTSKSQVVLTMTNMDPVDTATYYCARIPGYGGNGDYHYYGMDVWGQGTTVTVSSGGGGSGGGGSGGGGSDIQMTQSPSSLSASLGDRVTITCRASQGIRNDLGWYQQKPGKAPKRLIYASSTLQSGVPSRFSGSGSGTEFTLTISSLQPEDFATYYCLQHNNFPWTFGQGTKVEIKRAAAIEVMYPPPYLDNEKSNGTIIHVKGKHLCPSPLFPGPSKPFWVLVVVGGVLACYSLLVTVAFIIFWVRSKRSRLLHSDYMNMTPRRPGPTRKHYQPYAPPRDFAAYRSRVKFSRSADAPAYQQGQNQLYNELNLGRREEYDVLDKRRGRDPEMGGKPRRKNPQEGLYNELQKDKMAEAYSEIGMKGERRRGKGHDGLYQGLSTATKDTYDALHMQALPPR
B3: 10E3 THD (protein)
CAR polypeptide (scFv, THD hinge, transmembrane, costimulatory and CD3 zeta domains): QVTLKESGPVLVKPTETLTLTCTVSGFSLINARMGVSWIRQPPGKALEWLAHIFSNAEKSYRTSLKSRLTISKDTSKSQVVLTMTNMDPVDTATYYCARIPGYGGNGDYHYYGMDVWGQGTTVTVSSGGGGSGGGGSGGGGSDIQMTQSPSSLSASLGDRVTITCRASQGIRNDLGWYQQKPGKAPKRLIYASSTLQSGVPSRFSGSGSGTEFTLTISSLQPEDFATYYCLQHNNFPWTFGQGTKVEIKRAAALDNEKSNGTIIHVKGKHLCPSPLFPGPSKPFWVLVVVGGVLACYSLLVTVAFIIFWVRSKRSRLLHSDYMNMTPRRPGPTRKHYQPYAPPRDFAAYRSRVKFSRSADAPAYQQGQNQLYNELNLGRREEYDVLDKRRGRDPEMGGKPRRKNPQEGLYNELQKDKMAEAYSEIGMKGERRRGKGHDGLYQGLSTATKDTYDALHMQALPPR
B4: 8B5 CHD (protein)
CAR polypeptide (scFv, CHD hinge, transmembrane, costimulatory and CD3 zeta domains): QIQLVESGGGVVQPGRSLRLSCVASGFTFKNYGMHWVRQAPGKGLEWVAVIWYDGSNEYYGDPVKGRFTISRDNSKNMLYLQMNSLRADDTAVYYCARSGIAVAGAFDYWGQGTLVTVSSGGGGSGGGGSGGGGSEIVLTQSPDTLSLSPGEKATLSCRASQSVSSSFLAWYQQKPGQAPSLLIYVASRRAAGIPDRFSGSGSGTDFTLTISRLEPEDFGMFYCQHYGRTPFTFGPGTKVDIKRAAAIEVMYPPPYLDNEKSNGTIIHVKGKHLCPSPLFPGPSKPFWVLVVVGGVLACYSLLVTVAFIIFWVRSKRSRLLHSDYMNMTPRRPGPTRKHYQPYAPPRDFAAYRSRVKFSRSADAPAYQQGQNQLYNELNLGRREEYDVLDKRRGRDPEMGGKPRRKNPQEGLYNELQKDKMAEAYSEIGMKGERRRGKGHDGLYQGLSTATKDTYDALHMQALPPR

This test deals with T1, FLT3-HIS (human (accession given for hFLT3 in paragraph 116; species not restated for the reagent)). Put plainly: flow cytometry dot plot FSC against FLT3-HIS; CAR on lentivirus-transduced primary human T cells, Donor 2, stained with soluble FLT3-HIS and anti-HIS-PE. For orientation: A flow cytometer gives signals particle by particle.
As to B1, the binding entry is reported as “binds”.

Consider B2, for which the binding result is listed as “binds”.

With B3, the binding result is listed as “binds”.

Turning to B4, the binding entry is on record as “binds”.
